PubChem BioAssay AID652259 | Drosophila RNAi Screening Center | 2013
Purpose: 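Identify new Wingless signalling regulators in fly cells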 (primary screen). Cells: Drosophila clone 8 imaginal disc epithelial cells. Knock-down reagent: long dsRNA against Drosophila genes. Treatment: pathway stimulated by co-transfected Wingless expression plasmid. Measurement: 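Dual luciferase reads per well after Wingless plasmid stimulation: reporter firefly light and Renilla control light; activity is firefly divided by Renilla, a ratio not deposited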. Scale: firefly reporter light: higher = more Wg reporter light, before normalisation; Renilla control light: higher = more transfected or surviving cells. Rule for the call: 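a knock-down is a candidate when at least two out of four statistical tests show it departing from its plate mean; one test alone signals a weak candidate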. Calls: active = candidate regulator (raises or lowers reporter); inactive = not a candidate.
The deposit covers about 22,000 reagents; shown is a random part of those with a known target gene and a result. Over the whole deposit, 233 (1.1%) are marked active. 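Light values are raw, unnormalised plate reads; the ratio scores behind the reporter calls were not deposited.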 Unmarked entries are inactive. A plus sign joins genes that one reagent is predicted to hit. Not stated in the record: the amount of reagent, the time to read-out, the dose of the treatment.

Gene | dsRNA | reporter change call, replicate 1 | firefly reporter light, replicate 1 | firefly reporter light, replicate 2 | Renilla control light, replicate 1 | Renilla control light, replicate 2
Syx13 | DRSC09836 | – | 6285 | – | 2125 | –
CG18530 | DRSC15341 | – | 15596 | – | 5250 | –
PIG-F | DRSC11069 | – | 16876 | – | 5794 | –
ab | DRSC01162 | – | 21533 | – | 4840 | –
ab | DRSC03478 | – | 1968 | 7418 | 409 | 861
psh | DRSC19990 | – | 20480 | – | 10537 | –
CR33013 | DRSC06286 | – | 7381 | – | 2684 | –
poe | DRSC03593 | Wg reporter activity lowered (active) | 5488 | – | 4519 | –
CG6329 | DRSC06976 | – | 14224 | – | 3243 | –
CG15773 | DRSC18079 | – | 23161 | – | 8594 | –
tplus3a + tplus3b | DRSC03687 | – | 13984 | – | 8100 | –
CG17224 | DRSC00489 | – | 3062 | 6634 | 1313 | 2105
CG33635 | DRSC00006 | – | 28093 | – | 15780 | –
Cdk2 | DRSC16921 | – | 2343 | 7648 | 1554 | 2032
inaF-C | DRSC18902 | – | 2941 | – | 1336 | –
Unc-115a | DRSC12749 | – | 3732 | – | 1728 | –
Doa | DRSC13892 | – | 3917 | – | 2054 | –
Doa | DRSC13893 | – | 5673 | – | 1936 | –
Doa | DRSC13895 | – | 4140 | – | 1981 | –
Doa | DRSC13896 | – | 3715 | – | 1946 | –
Doa | DRSC13897 | – | 4080 | – | 2054 | –
Doa | DRSC16650 | – | 3843 | 8301 | 1808 | 1300
Sox14 | DRSC04656 | – | 4285 | 11376 | 1029 | 3232
Pdfr | DRSC18614 | – | 9633 | – | 12083 | –
Spn88Eb | DRSC16093 | – | 5257 | – | 1578 | –
CG18537 | DRSC06764 | – | 5021 | – | 2000 | –
PI31 | DRSC07306 | – | 10848 | – | 3341 | –
sunz | DRSC12559 | – | 9036 | – | 2356 | –
Obp56f | DRSC22270 | – | 2.98e5 | 3.93e5 | 1.17e5 | 1.41e5
CG32815 | DRSC18177 | – | 17859 | – | 19288 | –
CG32815 | DRSC18179 | – | 20369 | – | 15820 | –
CG11417 | DRSC18581 | – | 1187 | 4006 | 701 | 1224
CG32263 | DRSC22431 | – | 7.99e5 | 8.93e5 | 4.69e5 | 1.80e5
EMC10 | DRSC11850 | – | 16208 | – | 6009 | –
Sec63 | DRSC11002 | – | 1716 | 9859 | 1635 | 3751
Rpt4 | DRSC18713 | – | 13814 | – | 6373 | –
CG34393 | DRSC00419 | – | 4912 | 10944 | 817 | 1779
CG34393 | DRSC00710 | – | 3222 | 11115 | 793 | 2628
HIPP1 | DRSC11748 | – | 2349 | – | 1256 | –
chico | DRSC03531 | – | 6384 | – | 2124 | –
CG44838 | DRSC10330 | Wg reporter activity raised (active) | 4688 | – | 565 | –
CG44838 | DRSC10371 | – | 5578 | – | 2121 | –
GstD6 | DRSC16687 | – | 12752 | – | 3629 | –
Ilp2 | DRSC10968 | – | 5000 | – | 1624 | –
Tpr2 | DRSC03461 | – | 13764 | – | 2682 | –
RasGAP1 | DRSC11172 | – | 7139 | – | 3095 | –
Syx8 | DRSC10402 | – | 10440 | – | 5190 | –
Syx8 | DRSC22498 | – | 8.17e5 | 7.02e5 | 2.26e5 | 108
CG4496 | DRSC02753 | – | 1936 | 6705 | 673 | 2007
ocn | DRSC17020 | – | 7564 | – | 2880 | –
HDAC1 | DRSC08696 | – | 3809 | – | 1440 | –
CycC | DRSC16619 | – | 3314 | – | 2041 | –
CG2812 | DRSC04319 | – | 2918 | 7677 | 640 | 1880
CG6362 | DRSC07413 | – | 6296 | – | 2188 | –
CG12910 | DRSC06225 | – | 5923 | – | 1997 | –
tld | DRSC17084 | – | 12480 | – | 9851 | –
CG18814 | DRSC10347 | – | 4807 | – | 2608 | –
Dnaaf3 | DRSC06684 | – | 8088 | – | 2096 | –
CG13084 | DRSC02188 | – | 2474 | 4960 | 674 | 1558
MME1 | DRSC02714 | – | 11514 | – | 4708 | –
dnr1 | DRSC03948 | – | 19596 | – | 11105 | –
dnr1 | DRSC04122 | – | 3221 | 7195 | 531 | 1824
CG16700 | DRSC19755 | – | 18357 | – | 7895 | –
CG15905 | DRSC06591 | – | 8032 | – | 2952 | –
CG6462 | DRSC10641 | – | 1072 | 6001 | 1040 | 3174
Glg1 | DRSC11815 | – | 7421 | – | 2176 | –
Glg1 | DRSC11816 | – | 13159 | – | 5152 | –
Glg1 | DRSC11817 | – | 21320 | – | 6294 | –
CG14270 | DRSC17913 | – | 19184 | – | 11440 | –
CG10353 | DRSC19354 | – | 20209 | – | 11331 | –
CG2211 | DRSC08559 | – | 4252 | – | 1925 | –
Mtch | DRSC08679 | – | 11636 | – | 4581 | –
CG13476 | DRSC10019 | – | 4778 | – | 2194 | –
